According to patent US5032591A, “Pharmaceutical preparations” (Beecham Group p.l.c., priority 1988, dated 1991):

System: conscious male spontaneously hypertensive rats (SHR)
Assay: anti-hypertensive response: area under the control group blood pressure curve (mean arterial blood pressure, indwelling catheter) in conscious male spontaneously hypertensive rats
Type: in vivo
Settings: atenolol 10 mg/kg po, n=10, MAP as % change from pretreatment baseline
Description: Mean arterial blood pressures were measured from an indwelling catheter as described by Buckingham 1976 J. Pharm. Pharmac Vol. 28, pp 459-461. 1. Calculation of area under the control group blood pressure curve (AUC). Group mean arterial blood pressure values were calculated as % change from the pretreatment baseline. For each drug treatment group the area under the control group blood pressure curve was calculated using a trapezoidal method. […] Predicted AUC values were arrived at by combining values for each treatment given alone.

In the case of `CC(C)NCC(O)COc1ccc(CC(N)=O)cc1` (centres unmarked) [Atenolol], the “AUC (0-2 h)” value (0-2 h) is reported as 660 and the “AUC (0-4 h)” value (0-4 h) is reported as 2356.
